Data on six sequences can be found in paper PMC4804309.

For at least one entry, the source does not settle the construct or the ends of the probe. For some of these results: Negatives hold for the conditions tested.

The test system of series [1] is GST-MaWRKY26. Kind of series: competition with a labelled probe. The note with it: 25 mM HEPES-KOH pH 7.5, 100 mM KCl, 0.1 mM EDTA, 17% glycerol, 1 mM DTT, 50 ng protein, ~1 pmol probe, 20 uL, 25 min at 22 C, recombinant protein, protein details: N-terminal GST (pGEX-4T-1).
For series [2], the system named is GST-MaWRKY26. Kind of series: EMSA. The note with it: shift abolished by unlabeled self competitor; 25 mM HEPES-KOH pH 7.5, 100 mM KCl, 0.1 mM EDTA, 17% glycerol, 1 mM DTT, 50 ng protein, ~1 pmol probe, 20 uL, 25 min at 22 C; recombinant protein; protein details: N-terminal GST (pGEX-4T-1); label: 5' biotin.
A further series has as its system GST. Briefly: EMSA. The note with it: GST alone, same outcome stated for N3 and N5; 25 mM HEPES-KOH pH 7.5, 100 mM KCl, 0.1 mM EDTA, 17% glycerol, 1 mM DTT, 50 ng protein, ~1 pmol probe, 20 uL, 25 min at 22 C; recombinant protein; label: 5' biotin. (In general: A gel shift assay detects complexes by their altered migration in electrophoresis.)

“TTTATTTTTAAAAAAAATGGATTCGACTCCACGTGTCTATAAAAAAGCTGTACACTTC (double strand) [MaAOS3 mutant probe]”: the binding result in the series with GST-MaWRKY26 [1] (mutated probe did not abolish binding to N3 (legend: mutant probe incubated with protein)) is recorded as “no binding”.

For “GAGATCGCCATGTCCCTTTATTGGAGAAAAAAAAATGGCAGATCGAACTCAACAATCA (double strand) [MaLOX2 mutant probe]”, the binding result in the series with GST-MaWRKY26 [1] (mutated probe did not abolish binding to N1 (legend: mutant probe incubated with protein)) is reported as “no binding”.

In the case of “GAGATCGCCATGTCCCTTTATTGGAGAAATTGACTTGGCAGATCGAACTCAACAATCA (double strand) [MaLOX2 promoter probe]”, the binding result is “binds” in the series with GST-MaWRKY26 [2] and “no binding” in the series on GST.

For the sequence “GGAGAGGAGAGGAGAGGGGGTTGAACAAAAAAAACTTGAAAGCGTGGAACCTGCTTTG (double strand) [MaOPR3 mutant probe]”, the binding result in the series with GST-MaWRKY26 [1] (mutated probe did not abolish binding to N5 (legend: mutant probe incubated with protein)) was “no binding”.

On to “GGAGAGGAGAGGAGAGGGGGTTGAACTTTGACCACTTGAAAGCGTGGAACCTGCTTTG (double strand) [MaOPR3 promoter probe]”, for which, in the series on GST-MaWRKY26 [2], the binding result is “binds”.

With “TTTATTTTTTTGACCAATGGATTCGACTCCACGTGTCTATTTGACCGCTGTACACTTC (double strand) [MaAOS3 promoter probe]”, the binding result with GST-MaWRKY26 [2] was “binds”.
